Measured values as given in the supplement of paper PMC10849652.
The other results are listed elsewhere or left out.

By UniProt entry, the sequences of proteins in these tests, tags left out. Where a name states a change or a piece, a line headed by the entry shows the natural chain unless it says otherwise.
UniProt P48059, whole entry, looked up: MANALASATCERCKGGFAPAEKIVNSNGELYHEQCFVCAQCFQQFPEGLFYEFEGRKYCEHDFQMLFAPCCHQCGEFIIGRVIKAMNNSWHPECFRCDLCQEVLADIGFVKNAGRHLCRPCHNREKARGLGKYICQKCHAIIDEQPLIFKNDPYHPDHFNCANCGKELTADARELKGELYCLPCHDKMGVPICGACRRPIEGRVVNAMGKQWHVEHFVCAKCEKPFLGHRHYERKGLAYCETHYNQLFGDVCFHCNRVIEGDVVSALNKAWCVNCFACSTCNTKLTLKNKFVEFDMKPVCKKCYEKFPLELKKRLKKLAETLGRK
UniProt P20700: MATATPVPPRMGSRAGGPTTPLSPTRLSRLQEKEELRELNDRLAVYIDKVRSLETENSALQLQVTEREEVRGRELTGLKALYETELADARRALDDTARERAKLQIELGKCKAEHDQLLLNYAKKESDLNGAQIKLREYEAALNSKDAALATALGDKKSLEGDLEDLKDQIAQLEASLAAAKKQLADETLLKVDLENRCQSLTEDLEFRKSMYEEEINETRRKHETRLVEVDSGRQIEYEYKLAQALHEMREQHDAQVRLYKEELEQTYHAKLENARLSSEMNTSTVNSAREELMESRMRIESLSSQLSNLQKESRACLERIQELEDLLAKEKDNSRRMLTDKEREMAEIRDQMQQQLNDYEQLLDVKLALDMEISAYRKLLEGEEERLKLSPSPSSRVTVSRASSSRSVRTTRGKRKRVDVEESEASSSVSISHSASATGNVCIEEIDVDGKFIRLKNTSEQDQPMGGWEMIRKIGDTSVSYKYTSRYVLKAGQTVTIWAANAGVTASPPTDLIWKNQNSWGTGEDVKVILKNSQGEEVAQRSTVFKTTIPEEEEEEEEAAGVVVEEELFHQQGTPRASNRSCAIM
UniProt Q9H089: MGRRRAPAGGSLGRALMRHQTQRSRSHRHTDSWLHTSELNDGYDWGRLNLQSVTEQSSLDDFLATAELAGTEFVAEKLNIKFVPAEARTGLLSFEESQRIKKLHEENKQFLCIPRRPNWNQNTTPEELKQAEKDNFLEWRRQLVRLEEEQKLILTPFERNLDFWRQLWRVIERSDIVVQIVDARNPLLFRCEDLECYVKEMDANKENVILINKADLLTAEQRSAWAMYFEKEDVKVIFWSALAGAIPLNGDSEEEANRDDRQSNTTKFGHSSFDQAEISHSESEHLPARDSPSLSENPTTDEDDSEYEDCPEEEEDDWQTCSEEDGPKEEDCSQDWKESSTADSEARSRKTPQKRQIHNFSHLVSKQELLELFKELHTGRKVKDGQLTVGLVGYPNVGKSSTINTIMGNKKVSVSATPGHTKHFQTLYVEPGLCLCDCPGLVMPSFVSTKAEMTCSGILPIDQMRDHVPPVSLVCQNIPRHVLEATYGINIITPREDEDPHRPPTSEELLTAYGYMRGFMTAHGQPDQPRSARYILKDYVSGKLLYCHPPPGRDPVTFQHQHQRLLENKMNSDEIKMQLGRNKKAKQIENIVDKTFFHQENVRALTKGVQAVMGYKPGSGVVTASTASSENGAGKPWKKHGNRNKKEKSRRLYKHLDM
UniProt P18858, whole entry, looked up: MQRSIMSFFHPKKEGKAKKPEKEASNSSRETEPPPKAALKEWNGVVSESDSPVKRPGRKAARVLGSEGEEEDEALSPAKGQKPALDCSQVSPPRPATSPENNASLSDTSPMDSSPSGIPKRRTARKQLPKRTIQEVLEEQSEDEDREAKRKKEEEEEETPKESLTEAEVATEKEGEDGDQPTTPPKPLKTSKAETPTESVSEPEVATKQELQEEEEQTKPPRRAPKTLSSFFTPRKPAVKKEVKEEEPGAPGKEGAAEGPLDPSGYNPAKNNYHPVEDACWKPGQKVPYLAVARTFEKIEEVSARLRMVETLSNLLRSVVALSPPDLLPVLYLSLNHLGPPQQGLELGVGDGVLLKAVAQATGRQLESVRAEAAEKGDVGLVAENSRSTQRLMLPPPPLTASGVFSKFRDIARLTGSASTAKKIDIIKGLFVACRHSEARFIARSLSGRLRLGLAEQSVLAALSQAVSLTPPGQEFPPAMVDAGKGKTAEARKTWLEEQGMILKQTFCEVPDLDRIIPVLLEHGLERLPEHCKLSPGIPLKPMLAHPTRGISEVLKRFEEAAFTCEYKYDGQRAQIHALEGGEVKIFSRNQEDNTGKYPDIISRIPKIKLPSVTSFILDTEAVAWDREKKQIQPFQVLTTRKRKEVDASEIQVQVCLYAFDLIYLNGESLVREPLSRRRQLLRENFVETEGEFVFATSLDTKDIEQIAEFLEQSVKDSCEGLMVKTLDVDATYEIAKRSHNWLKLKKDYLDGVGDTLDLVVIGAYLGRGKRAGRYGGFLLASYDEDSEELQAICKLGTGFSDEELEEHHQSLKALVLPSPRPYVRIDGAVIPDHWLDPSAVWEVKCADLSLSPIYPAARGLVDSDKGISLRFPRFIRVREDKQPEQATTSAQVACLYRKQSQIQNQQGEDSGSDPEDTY
UniProt Q9H6V9: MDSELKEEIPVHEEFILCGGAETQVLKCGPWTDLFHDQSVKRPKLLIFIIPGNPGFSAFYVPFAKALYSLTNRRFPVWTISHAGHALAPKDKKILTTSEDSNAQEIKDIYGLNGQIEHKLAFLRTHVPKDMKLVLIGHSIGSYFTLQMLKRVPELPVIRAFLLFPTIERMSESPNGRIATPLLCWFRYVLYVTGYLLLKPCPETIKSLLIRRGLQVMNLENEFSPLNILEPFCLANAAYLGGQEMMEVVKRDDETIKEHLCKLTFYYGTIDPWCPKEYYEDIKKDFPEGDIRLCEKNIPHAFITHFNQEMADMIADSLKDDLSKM
UniProt O75427: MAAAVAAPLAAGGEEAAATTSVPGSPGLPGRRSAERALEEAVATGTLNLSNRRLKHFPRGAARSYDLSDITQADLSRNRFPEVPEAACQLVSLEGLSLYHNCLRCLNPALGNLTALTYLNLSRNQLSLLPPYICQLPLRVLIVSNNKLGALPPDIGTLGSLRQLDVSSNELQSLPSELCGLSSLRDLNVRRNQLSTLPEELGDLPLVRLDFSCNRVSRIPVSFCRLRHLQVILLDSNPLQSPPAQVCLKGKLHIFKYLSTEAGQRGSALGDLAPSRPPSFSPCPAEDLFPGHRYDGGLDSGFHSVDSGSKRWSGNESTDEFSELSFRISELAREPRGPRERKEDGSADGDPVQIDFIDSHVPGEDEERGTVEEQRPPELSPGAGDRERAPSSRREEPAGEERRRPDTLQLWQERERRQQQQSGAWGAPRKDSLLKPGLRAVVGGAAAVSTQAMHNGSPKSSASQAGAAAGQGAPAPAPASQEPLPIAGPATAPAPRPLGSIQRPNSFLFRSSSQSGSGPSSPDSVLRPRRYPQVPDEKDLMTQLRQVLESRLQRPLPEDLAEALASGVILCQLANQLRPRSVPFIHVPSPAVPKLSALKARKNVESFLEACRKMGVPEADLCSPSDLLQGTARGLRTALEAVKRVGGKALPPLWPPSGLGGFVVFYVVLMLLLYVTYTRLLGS
UniProt Q14693: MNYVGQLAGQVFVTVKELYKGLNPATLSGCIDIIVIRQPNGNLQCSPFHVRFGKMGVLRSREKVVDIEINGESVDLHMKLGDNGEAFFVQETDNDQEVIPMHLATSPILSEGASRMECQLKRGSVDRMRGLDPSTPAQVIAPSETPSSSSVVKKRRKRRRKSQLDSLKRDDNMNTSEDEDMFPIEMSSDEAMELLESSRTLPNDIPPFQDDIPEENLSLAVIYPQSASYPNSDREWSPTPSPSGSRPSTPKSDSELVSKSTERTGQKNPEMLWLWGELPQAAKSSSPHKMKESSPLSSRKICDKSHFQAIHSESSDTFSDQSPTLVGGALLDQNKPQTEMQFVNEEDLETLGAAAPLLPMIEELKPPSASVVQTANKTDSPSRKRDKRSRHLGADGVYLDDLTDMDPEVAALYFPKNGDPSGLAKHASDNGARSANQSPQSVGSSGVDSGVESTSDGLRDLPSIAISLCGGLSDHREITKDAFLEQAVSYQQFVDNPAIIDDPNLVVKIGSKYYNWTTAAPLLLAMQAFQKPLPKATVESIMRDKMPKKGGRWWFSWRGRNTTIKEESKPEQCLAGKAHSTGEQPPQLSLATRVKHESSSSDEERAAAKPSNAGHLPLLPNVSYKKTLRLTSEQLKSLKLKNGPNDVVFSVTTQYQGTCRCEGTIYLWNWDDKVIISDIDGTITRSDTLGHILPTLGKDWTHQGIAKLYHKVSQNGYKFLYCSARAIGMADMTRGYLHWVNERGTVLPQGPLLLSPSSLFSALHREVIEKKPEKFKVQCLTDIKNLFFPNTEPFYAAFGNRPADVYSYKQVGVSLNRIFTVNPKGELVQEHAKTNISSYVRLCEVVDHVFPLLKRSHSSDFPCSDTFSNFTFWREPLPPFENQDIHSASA
UniProt Q03252: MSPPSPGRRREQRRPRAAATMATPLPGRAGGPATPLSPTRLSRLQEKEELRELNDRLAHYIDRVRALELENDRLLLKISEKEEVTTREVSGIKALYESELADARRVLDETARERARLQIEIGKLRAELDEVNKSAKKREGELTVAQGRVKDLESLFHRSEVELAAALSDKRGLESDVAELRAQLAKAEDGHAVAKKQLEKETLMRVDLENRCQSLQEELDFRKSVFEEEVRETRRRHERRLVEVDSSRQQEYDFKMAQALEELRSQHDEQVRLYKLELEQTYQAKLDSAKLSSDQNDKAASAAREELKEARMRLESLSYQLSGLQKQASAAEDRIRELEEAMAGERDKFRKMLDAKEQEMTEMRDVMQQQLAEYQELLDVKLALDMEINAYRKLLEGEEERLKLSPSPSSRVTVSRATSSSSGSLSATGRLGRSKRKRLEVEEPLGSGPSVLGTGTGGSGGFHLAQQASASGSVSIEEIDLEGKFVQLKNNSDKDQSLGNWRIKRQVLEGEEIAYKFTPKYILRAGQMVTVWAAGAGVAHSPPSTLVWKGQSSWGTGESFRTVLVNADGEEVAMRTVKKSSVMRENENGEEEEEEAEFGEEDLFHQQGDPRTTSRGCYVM
UniProt Q96BZ8: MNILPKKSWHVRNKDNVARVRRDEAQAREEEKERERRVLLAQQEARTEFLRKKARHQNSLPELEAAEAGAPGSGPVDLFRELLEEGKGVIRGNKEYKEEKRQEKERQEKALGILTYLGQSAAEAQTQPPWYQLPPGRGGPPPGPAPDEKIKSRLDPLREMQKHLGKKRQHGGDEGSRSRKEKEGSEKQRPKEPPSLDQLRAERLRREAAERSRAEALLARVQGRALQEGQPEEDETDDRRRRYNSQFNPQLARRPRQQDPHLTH
UniProt Q8ND56: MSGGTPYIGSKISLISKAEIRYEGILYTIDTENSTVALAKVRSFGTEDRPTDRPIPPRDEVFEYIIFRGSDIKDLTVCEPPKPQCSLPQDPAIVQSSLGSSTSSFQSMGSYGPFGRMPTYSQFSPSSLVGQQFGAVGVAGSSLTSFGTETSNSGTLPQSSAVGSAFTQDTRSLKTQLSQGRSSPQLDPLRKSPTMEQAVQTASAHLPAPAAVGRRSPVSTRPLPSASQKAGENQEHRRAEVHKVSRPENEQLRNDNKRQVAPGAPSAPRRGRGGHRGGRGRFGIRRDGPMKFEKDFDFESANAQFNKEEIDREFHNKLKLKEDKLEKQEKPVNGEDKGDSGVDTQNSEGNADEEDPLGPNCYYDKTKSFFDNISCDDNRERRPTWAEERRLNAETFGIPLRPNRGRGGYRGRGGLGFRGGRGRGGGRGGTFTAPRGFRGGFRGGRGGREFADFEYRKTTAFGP
UniProt Q8N9N7: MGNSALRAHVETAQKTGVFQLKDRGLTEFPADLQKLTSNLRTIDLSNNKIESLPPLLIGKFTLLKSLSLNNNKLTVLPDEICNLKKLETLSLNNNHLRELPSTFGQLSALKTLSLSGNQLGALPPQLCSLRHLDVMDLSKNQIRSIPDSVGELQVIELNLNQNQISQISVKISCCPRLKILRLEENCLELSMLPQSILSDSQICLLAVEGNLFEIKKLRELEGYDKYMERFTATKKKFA
UniProt Q96FE5: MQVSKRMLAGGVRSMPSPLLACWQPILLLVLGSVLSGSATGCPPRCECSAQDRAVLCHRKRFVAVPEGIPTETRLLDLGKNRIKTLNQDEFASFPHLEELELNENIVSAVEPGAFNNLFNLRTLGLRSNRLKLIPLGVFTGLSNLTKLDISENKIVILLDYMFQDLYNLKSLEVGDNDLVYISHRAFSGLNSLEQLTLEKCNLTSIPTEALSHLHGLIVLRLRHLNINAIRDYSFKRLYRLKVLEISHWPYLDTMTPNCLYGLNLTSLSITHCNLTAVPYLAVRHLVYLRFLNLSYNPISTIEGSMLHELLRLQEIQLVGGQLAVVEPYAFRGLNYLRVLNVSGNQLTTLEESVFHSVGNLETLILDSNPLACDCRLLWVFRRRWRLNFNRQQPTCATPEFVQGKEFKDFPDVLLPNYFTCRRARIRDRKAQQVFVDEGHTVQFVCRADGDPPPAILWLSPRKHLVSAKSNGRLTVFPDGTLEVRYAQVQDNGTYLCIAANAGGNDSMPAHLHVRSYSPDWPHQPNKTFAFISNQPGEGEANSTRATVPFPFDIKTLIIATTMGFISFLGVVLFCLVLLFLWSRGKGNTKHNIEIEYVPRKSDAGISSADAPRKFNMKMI

What was measured:
Assay in all cases: log2 fold change, soluble protein after heating vs DMSO (PISA); higher = thermal stabilisation; K562 lysate, 10 uM; active = over 0.2 and 3.5 SD of the protein, either way, in both replicates (recomputed)
[1] = compound: CCCS(=O)(=O)Nc1ccc(F)c(C(=O)c2c[nH]c3ncc(-c4ccc(Cl)cc4)cc23)c1F [vemurafenib]
How it was run: (§1)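 K562 pellets were dounce-homogenised in PBS pH 7.4 with 1 mM MgCl2, and the crude extract at 1 mg/mL protein was treated with 10 μM compound for 30 min. Aliquots were heated for 3 min across 48°C-58°C, pooled, and brought to 0.5% NP-40 at 4°C; soluble protein was the supernatant after 21,000xg for 90 min. Soluble protein was quantified by TMTpro 16plex LC-MS/MS with channel sums equalised, and reported as log2 fold change in thermal stability against DMSO controls, with values from duplicates.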

[2] = compound: CCCS(=O)(=O)Nc1ccc(F)c(C(=O)c2c[nH]c3ncc(Cl)cc23)c1F
How it was run: as §1

[3] = compound: CCN(CCCOc1ccc2c(Nc3cc(CC(=O)Nc4cccc(F)c4)[nH]n3)ncnc2c1)CCOP(=O)(O)O [barasertib]
How it was run: as §1

[4] = compound: CC[C@@H]1C(=O)N(C)c2cnc(Nc3ccc(C(=O)NC4CCN(C)CC4)cc3OC)nc2N1C1CCCC1
How it was run: as §1

[5] = compound: CC[C@@H]1C(=O)N(C)c2cnc(Nc3ccc(C(=O)N[C@H]4CC[C@H](N5CCN(CC6CC6)CC5)CC4)cc3OC)nc2N1C(C)C [volasertib]
How it was run: as §1

[6] = compound: CCn1c(C(=O)N(C2CC2)C2CC2)cc2c3c(ncn3C)c(Nc3cc(C)n(C)n3)nc21
How it was run: as §1

[7] = compound: CCn1cc(-c2ccnc3[nH]c(-c4cccc(CN(C)C)c4)cc23)c(-c2ccc(NC(=O)N(C)C)cc2)n1
How it was run: as §1

[8] = compound: CN1CCC(CNc2ccc3ncc(-c4cccc(OC(F)(F)F)c4)n3n2)CC1
How it was run: as §1

[9] = compound: CN1CCN(CCOc2cc(OC3CCOCC3)c3c(Nc4c(Cl)ccc5c4OCO5)ncnc3c2)CC1 [saracatinib]
How it was run: as §1

[10] = compound: CN1CCN(c2nc(C3=C(c4c[nH]c5ccccc45)C(=O)NC3=O)c3ccccc3n2)CC1 [sotrastaurin]
How it was run: as §1

Row | Target | log2 fold change [1] | log2 fold change [2] | log2 fold change [3] | log2 fold change [4] | log2 fold change [5] | log2 fold change [6] | log2 fold change [7] | log2 fold change [8] | log2 fold change [9] | log2 fold change [10]
1 | LCP1 (UniProt P13796) | inactive: 0.001 | inactive: -0.004 | inactive: -0.05 | inactive: 0.029 | inactive: 0.024 | inactive: -0.013 | inactive: 0.029 | inactive: 0.041 | inactive: -0.012 | inactive: 0.015
2 | LENG8 (UniProt Q96PV6) | inactive: 0.022 | inactive: -0.062 | inactive: 0.023 | inactive: 0.07 | inactive: -0.124 | inactive: 0 | inactive: 0.034 | inactive: 0.019 | inactive: -0.365 | inactive: 0.041
3 | LTA4H (UniProt P09960) | inactive: -0.022 | inactive: -0.015 | inactive: -0.039 | inactive: 0.005 | inactive: 0.034 | inactive: 0.015 | inactive: -0.028 | inactive: 0.05 | inactive: -0.003 | inactive: 0.017
4 | LMNA (UniProt P02545) | inactive: -0.075 | inactive: 0.001 | inactive: 0.186 | inactive: -0.014 | inactive: 0.013 | inactive: 0.022 | inactive: -0.018 | inactive: 0.033 | inactive: 0.018 | inactive: -0.003
5 | LRRC8C (UniProt E9PHY6) | inactive: -0.196 | – | – | – | – | – | – | – | – | –
6 | LIMS1 isoform 3 (UniProt P48059) | inactive: -0.055 | inactive: -0.006 | inactive: 0.014 | inactive: 0.008 | inactive: 0.024 | inactive: -0.002 | inactive: -0.005 | inactive: 0.045 | inactive: 0.014 | inactive: -0.162
7 | LETM1 (UniProt O95202) | inactive: 0.029 | inactive: 0.005 | inactive: -0.015 | inactive: -0.012 | inactive: 0.01 | inactive: -0.015 | inactive: 0.08 | active: -0.287 | inactive: -0.002 | inactive: -0.014
8 | LMNB1 (UniProt P20700) | inactive: -0.009 | inactive: 0.031 | inactive: 0.02 | inactive: 0.012 | inactive: 0 | inactive: 0.006 | inactive: -0.027 | inactive: 0.006 | inactive: -0.011 | inactive: -0.031
9 | LSG1 (UniProt Q9H089) | inactive: -0.056 | inactive: 0.046 | inactive: 0.037 | inactive: -0.084 | inactive: -0.065 | inactive: -0.01 | inactive: -0.124 | inactive: 0.064 | inactive: 0.043 | inactive: 0.024
10 | LIG1 (UniProt P18858) | inactive: 0.003 | inactive: -0.004 | inactive: -0.007 | inactive: 0.016 | inactive: -0.012 | inactive: -0.009 | inactive: 0.084 | inactive: -0.008 | inactive: 0.013 | inactive: -0.004
11 | LDAH isoform 2 (UniProt Q9H6V9) | inactive: 0.077 | inactive: 0.125 | inactive: 0.018 | inactive: 0.003 | inactive: -0.036 | inactive: -0.004 | inactive: -0.013 | inactive: -0.018 | inactive: 0.016 | inactive: -0.01
12 | LRCH4 (UniProt O75427) | inactive: 0.024 | inactive: 0.05 | inactive: -0.064 | inactive: 0.045 | inactive: -0.008 | inactive: -0.082 | inactive: 0.239 | inactive: 0.059 | inactive: 0.044 | inactive: -0.009
13 | LSM2 (UniProt Q9Y333) | inactive: 0.002 | inactive: -0.014 | inactive: 0.008 | inactive: -0.016 | inactive: 0.041 | inactive: -0.048 | inactive: -0.053 | inactive: 0.068 | inactive: -0.006 | inactive: -0.002
14 | LRRC8D (UniProt Q7L1W4) | inactive: 0.078 | inactive: 0.006 | inactive: 0.059 | inactive: 0 | inactive: -0.039 | inactive: -0.03 | inactive: -0.077 | inactive: -0.022 | inactive: 0.003 | inactive: -0.005
15 | LPIN1 isoform 7 (UniProt Q14693) | inactive: -0.057 | inactive: 0.065 | inactive: 0.1 | inactive: -0.057 | inactive: -0.002 | inactive: -0.003 | inactive: -0.052 | inactive: -0.05 | inactive: 0.024 | inactive: 0.028
16 | LGALS3 (UniProt P17931) | inactive: -0.165 | inactive: 0.044 | inactive: 0.118 | inactive: 0.117 | inactive: 0.135 | inactive: 0.071 | inactive: 0.179 | inactive: -0.101 | inactive: 0.496 | inactive: -0.035

2 records picked at random from the list so far:
Row | Target | log2 fold change [1] | log2 fold change [2] | log2 fold change [3] | log2 fold change [4] | log2 fold change [5] | log2 fold change [6] | log2 fold change [7] | log2 fold change [8] | log2 fold change [9] | log2 fold change [10]
1 | LCP1 (UniProt P13796) | inactive: 0.001 | inactive: -0.004 | inactive: -0.05 | inactive: 0.029 | inactive: 0.024 | inactive: -0.013 | inactive: 0.029 | inactive: 0.041 | inactive: -0.012 | inactive: 0.015
6 | LIMS1 isoform 3 (UniProt P48059) | inactive: -0.055 | inactive: -0.006 | inactive: 0.014 | inactive: 0.008 | inactive: 0.024 | inactive: -0.002 | inactive: -0.005 | inactive: 0.045 | inactive: 0.014 | inactive: -0.162

The results go on.

Row | Target | log2 fold change [1] | log2 fold change [2] | log2 fold change [3] | log2 fold change [4] | log2 fold change [5] | log2 fold change [6] | log2 fold change [7] | log2 fold change [8] | log2 fold change [9] | log2 fold change [10]
17 | LMNB2 (UniProt Q03252) | inactive: -0.014 | inactive: 0.048 | inactive: 0.007 | inactive: 0.015 | inactive: 0.008 | inactive: 0.039 | inactive: 0.049 | inactive: -0.016 | inactive: -0.008 | inactive: 0.004
18 | LENG1 (UniProt Q96BZ8) | inactive: 0.025 | inactive: -0.022 | inactive: -0.038 | inactive: 0.008 | inactive: -0.012 | inactive: 0.04 | inactive: -0.055 | inactive: 0.069 | inactive: -0.041 | inactive: -0.023
19 | LSM14A isoform 2 (UniProt Q8ND56) | inactive: -0.097 | inactive: 0.031 | inactive: 0.048 | inactive: 0.092 | inactive: 0.02 | inactive: 0.04 | inactive: -0.073 | inactive: 0.076 | inactive: 0.003 | inactive: 0.001
20 | LRPPRC (UniProt H7C3W8) | inactive: 0.566 | – | – | – | – | – | – | – | – | –
21 | LRBA (UniProt P50851) | inactive: -0.001 | inactive: 0.003 | inactive: 0.021 | inactive: -0.024 | inactive: -0.021 | inactive: -0.009 | inactive: -0.05 | inactive: 0.033 | inactive: 0.014 | inactive: -0.004
22 | LRWD1 (UniProt Q9UFC0) | inactive: 0.009 | inactive: -0.013 | inactive: -0.021 | inactive: -0.016 | inactive: -0.017 | inactive: 0.023 | inactive: -0.003 | inactive: 0.036 | inactive: 0.025 | inactive: 0.03
23 | LDHA isoform 3 (UniProt P00338) | inactive: 0.001 | inactive: 0.02 | inactive: -0.023 | inactive: 0.034 | inactive: 0.026 | inactive: -0.007 | inactive: 0.022 | inactive: 0.031 | inactive: -0.019 | inactive: -0.029
24 | LCP2 (UniProt Q13094) | inactive: 0.002 | inactive: -0.005 | inactive: 0.038 | inactive: 0.081 | inactive: -0.022 | inactive: 0.018 | inactive: 0.007 | inactive: -0.045 | inactive: 0.011 | inactive: 0.013
25 | LRRC57 (UniProt Q8N9N7) | inactive: -0.016 | inactive: -0.076 | inactive: 0.002 | inactive: 0.096 | inactive: 0.062 | inactive: 0.007 | inactive: -0.106 | inactive: 0.07 | inactive: -0.02 | inactive: 0.014
26 | LLPH (UniProt Q9BRT6) | inactive: -0.035 | inactive: 0.032 | inactive: -0.073 | inactive: 0.024 | inactive: 0.01 | inactive: -0.02 | inactive: 0.231 | inactive: -0.082 | inactive: 0.035 | inactive: 0.025
27 | LSM4 (UniProt Q9Y4Z0) | inactive: -0.004 | inactive: -0.01 | inactive: -0.079 | inactive: 0.066 | inactive: 0.051 | inactive: -0.022 | inactive: -0.137 | inactive: 0.074 | inactive: -0.012 | inactive: -0.001
28 | LMBRD2 (UniProt Q68DH5) | inactive: -0.024 | inactive: 0.015 | inactive: 0.014 | inactive: 0.05 | inactive: -0.012 | inactive: -0.049 | inactive: 0.013 | inactive: -0.081 | inactive: 0.033 | inactive: 0.054
29 | LSM3 (UniProt P62310) | inactive: 0.015 | inactive: -0.015 | inactive: 0.046 | inactive: 0.053 | inactive: 0.026 | inactive: -0.034 | inactive: -0.136 | inactive: -0.006 | inactive: -0.015 | inactive: 0.002
30 | LINGO1 (UniProt Q96FE5) | inactive: 0.002 | inactive: -0.126 | inactive: 0.014 | inactive: -0.121 | inactive: -0.023 | inactive: -0.007 | inactive: -0.061 | inactive: -0.003 | inactive: 0.041 | –
31 | LRRC8B (UniProt Q6P9F7) | inactive: 0.011 | inactive: 0.029 | inactive: -0.155 | inactive: -0.191 | inactive: -0.17 | inactive: 0.004 | inactive: -0.037 | inactive: 0.193 | inactive: 0.229 | inactive: -0.017
